{"source": "PubChem BioAssay AID686937 – Drosophila RNAi Screening Center | 2013", "assay": "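Knock-downs that reduce output of a secreted reporter enzyme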 (primary screen)", "cell system": "Drosophila S2 cells expressing secreted horseradish peroxidase", "reagents": "long dsRNA against Drosophila genes", "time to read-out": "about 5.5 days (5 days dsRNA, then 12 h reporter induction)", "treatment": "reporter expression induced after 5 days of dsRNA, read 12 h later; inducer not stated", "detection": "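After 5 days of dsRNA and 12 h of reporter induction, medium peroxidase read by chemiluminescence and scored as per-plate z-score; higher values mean more reporter released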", "scale": "z-score: higher = more reporter secreted into medium", "note": "The screen tested about 23,000 reagents; shown is a random part of those that have a named target and a result. 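Reduced-secretion tags in replicate 1 do not always agree with the z-scores; no criterion for assigning the tags was given.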 Reagents against one gene are numbered here. A plus sign joins genes that one reagent is predicted to hit. Not all columns of the deposit are shown. The record does not give: the amount of reagent."}
{"predicted target": "Act57B (Actin 57B)", "dsRNA no.": 1, "z-score, replicate 1": 0.25}
{"predicted target": "Trc8 (TRC8 ring finger protein)", "dsRNA no.": 1, "z-score, replicate 1": 0.22}
{"predicted target": "Polr3G (RNA polymerase III subunit G)", "dsRNA no.": 1, "z-score, replicate 1": 0.28}
{"predicted target": "PPP4R2r (Protein phosphatase 4 regulatory subunit 2-related protein)", "dsRNA no.": 1, "z-score, replicate 1": 0.16}
{"predicted target": "PPP4R2r (Protein phosphatase 4 regulatory subunit 2-related protein)", "dsRNA no.": 2, "z-score, replicate 1": -0.07}
{"predicted target": "CG42496 + Ppcdc", "dsRNA no.": 1, "z-score, replicate 1": -0.53}
{"predicted target": "CG3906", "dsRNA no.": 1, "z-score, replicate 1": 0.09}
{"predicted target": "Arp5 (Actin-related protein 5)", "dsRNA no.": 1, "z-score, replicate 1": 0.58}
{"predicted target": "Pkc53E (Protein C kinase 53E)", "dsRNA no.": 1, "z-score, replicate 1": 0.21}
{"predicted target": "Pkc53E (Protein C kinase 53E)", "dsRNA no.": 2, "z-score, replicate 1": 0.33}
{"predicted target": "Ugt37D1 (UDP-glycosyltransferase family 37 member D1)", "dsRNA no.": 1, "z-score, replicate 1": 0.17}
{"predicted target": "CG10877", "dsRNA no.": 1, "z-score, replicate 1": 0.25}
{"predicted target": "CG42397", "dsRNA no.": 1, "z-score, replicate 1": 0.5}
{"predicted target": "CG7059", "dsRNA no.": 1, "z-score, replicate 1": 0.29}
{"predicted target": "CG6738", "dsRNA no.": 1, "z-score, replicate 1": 0.27}
{"predicted target": "pyd (polychaetoid)", "dsRNA no.": 1, "z-score, replicate 1": 0.44}
{"predicted target": "pyd (polychaetoid)", "dsRNA no.": 2, "z-score, replicate 1": 0.22}
{"predicted target": "pyd (polychaetoid)", "dsRNA no.": 3, "z-score, replicate 1": 0.24}
{"predicted target": "pyd (polychaetoid)", "dsRNA no.": 4, "z-score, replicate 1": 0.27}
{"predicted target": "pyd (polychaetoid)", "dsRNA no.": 5, "z-score, replicate 1": 0.25}
{"predicted target": "pyd (polychaetoid)", "dsRNA no.": 6, "z-score, replicate 1": 0.35}
{"predicted target": "pyd (polychaetoid)", "dsRNA no.": 7, "z-score, replicate 1": 0.43}
{"predicted target": "pyd (polychaetoid)", "dsRNA no.": 8, "z-score, replicate 1": 1.47}
{"predicted target": "ncd (non-claret disjunctional)", "dsRNA no.": 1, "z-score, replicate 1": 0.14}
{"predicted target": "ytr (yantar)", "dsRNA no.": 1, "z-score, replicate 1": 0.29}
{"predicted target": "ytr (yantar)", "dsRNA no.": 2, "z-score, replicate 1": 0.6}
{"predicted target": "Calr (Calreticulin)", "dsRNA no.": 1, "z-score, replicate 1": -1.39}
{"predicted target": "CG14742", "dsRNA no.": 1, "z-score, replicate 1": 0.67}
{"predicted target": "COX4L (Cytochrome c oxidase subunit 4-like)", "dsRNA no.": 1, "z-score, replicate 1": 0.38}
{"predicted target": "dgt6 (dim gamma-tubulin 6)", "dsRNA no.": 1, "z-score, replicate 1": 0.33}
{"predicted target": "CG31933", "dsRNA no.": 1, "z-score, replicate 1": 0.23}
{"predicted target": "CG31546", "dsRNA no.": 1, "z-score, replicate 1": 0.15}
{"predicted target": "CG15435", "dsRNA no.": 1, "z-score, replicate 1": 0.71}
{"predicted target": "Ucp4B + asRNA:CR43465", "dsRNA no.": 1, "z-score, replicate 1": 0}
{"predicted target": "CG6901", "dsRNA no.": 1, "z-score, replicate 1": 0.41}
{"predicted target": "Sec61gamma (Sec61 gamma subunit)", "dsRNA no.": 1, "z-score, replicate 1": -1.65}
{"predicted target": "DIP-alpha (Dpr-interacting protein alpha)", "dsRNA no.": 1, "z-score, replicate 1": -1}
{"predicted target": "DIP-alpha (Dpr-interacting protein alpha)", "dsRNA no.": 2, "z-score, replicate 1": -1.53}
{"predicted target": "Proc (Proctolin)", "dsRNA no.": 1, "z-score, replicate 1": -3.97}
{"predicted target": "Ir47a (Ionotropic receptor 47a)", "dsRNA no.": 1, "z-score, replicate 1": 0.4}

Laid out differently: 6 of the entries above.
{"predicted target":"CG42496 + Ppcdc","dsRNA no.":1,"z-score, replicate 1":-0.53}
{"predicted target":"CG3906","dsRNA no.":1,"z-score, replicate 1":0.09}
{"predicted target":"Arp5 (Actin-related protein 5)","dsRNA no.":1,"z-score, replicate 1":0.58}
{"predicted target":"Pkc53E (Protein C kinase 53E)","dsRNA no.":1,"z-score, replicate 1":0.21}
{"predicted target":"Pkc53E (Protein C kinase 53E)","dsRNA no.":2,"z-score, replicate 1":0.33}
{"predicted target":"Ugt37D1 (UDP-glycosyltransferase family 37 member D1)","dsRNA no.":1,"z-score, replicate 1":0.17}
